Test results taken from PubChem BioAssay AID188 (DTP/NCI, 2004).
Values are animals surviving of animals treated; these mice carried no tumour. Counts of survivors are from the toxicity check (mostly the fifth day) where no day follows; animals may have died later. Schedules are NCI's codes, taken here to give the interval after Q, in days (D) or hours (H), and the number of doses after X.

System: CD2F1 mice, nontumored, toxicity/survival
Assay: NCI In Vivo Anticancer Drug Screen. Data for tumor model Nontumored Animals (Toxicity Test) in CD2F1 (CDF1) mice

For `C1CCC2C[N-]CCC2C1.C1CCC2C[N-]CCC2C1.C1CCC2C[N-]CCC2C1.C1CCC2C[N-]CCC2C1.[Cl][Rh][Cl]` (configuration not stated), the survivor count (dose: 0.06 mg/kg/injection, schedule: Q03HX024 (ip), vehicle: saline) was 8 of 8, the survivor count (dose: 0.13 mg/kg/injection, schedule: Q03HX008 (ip), vehicle: saline) was 7 of 8 and the survivor count (dose: 0.13 mg/kg/injection, schedule: Q03HX016 (ip), vehicle: saline) was 8 of 8. The survivor count (dose: 0.13 mg/kg/injection, schedule: Q03HX024 (ip), vehicle: saline) was 8 of 8, the survivor count (dose: 0.25 mg/kg/injection, schedule: Q01DX009 (ip), vehicle: saline) was 8 of 8 and the survivor count (dose: 0.25 mg/kg/injection, schedule: Q03HX008 (ip), vehicle: saline) was 8 of 8. For the same compound, the survivor count (dose: 0.25 mg/kg/injection, schedule: Q03HX016 (ip), vehicle: saline) was 7 of 8, the survivor count (dose: 0.25 mg/kg/injection, schedule: Q03HX024 (ip), vehicle: saline) was 8 of 8 and the survivor count (dose: 0.5 mg/kg/injection, schedule: Q01DX009 (ip), vehicle: saline) was 8 of 8. For the same compound, the survivor count (dose: 0.5 mg/kg/injection, schedule: Q03HX008 (ip), vehicle: saline) was 8 of 8, the survivor count (dose: 0.5 mg/kg/injection, schedule: Q03HX016 (ip), vehicle: saline) was 7 of 8 and the survivor count (dose: 0.5 mg/kg/injection, schedule: Q03HX024 (ip), vehicle: saline) was 8 of 8. For the same compound, the survivor count (dose: 0.5 mg/kg/injection, schedule: Q04DX003 (ip), vehicle: saline) was 8 of 8, the survivor count (dose: 1.0 mg/kg/injection, schedule: Q01DX001 (ip), vehicle: saline) was 8 of 8 and the survivor count (dose: 1.0 mg/kg/injection, schedule: Q01DX009 (ip), vehicle: saline) was 8 of 8. For the same compound, the survivor count (dose: 1.0 mg/kg/injection, schedule: Q03HX008 (ip), vehicle: saline) was 8 of 8, the survivor count (dose: 1.0 mg/kg/injection, schedule: Q03HX016 (ip), vehicle: saline) was 8 of 8 and the survivor count (dose: 1.0 mg/kg/injection, schedule: Q03HX024 (ip), vehicle: saline) was 8 of 8. For the same compound, the survivor count (dose: 1.0 mg/kg/injection, schedule: Q04DX003 (ip), vehicle: saline) was 8 of 8, the survivor count (dose: 1.0 mg/kg/injection, schedule: Q08DX002 (ip), vehicle: saline) was 8 of 8 and the survivor count (dose: 2.0 mg/kg/injection, schedule: Q01DX001 (ip), vehicle: saline) was 8 of 8. The survivor count (dose: 2.0 mg/kg/injection, schedule: Q01DX009 (ip), vehicle: saline) was 8 of 8, the survivor count (dose: 2.0 mg/kg/injection, schedule: Q03HX008 (ip), vehicle: saline) was 8 of 8 and the survivor count (dose: 2.0 mg/kg/injection, schedule: Q03HX016 (ip), vehicle: saline) was 8 of 8. For the same compound, the survivor count (dose: 2.0 mg/kg/injection, schedule: Q03HX024 (ip), vehicle: saline) was 8 of 8, the survivor count (dose: 2.0 mg/kg/injection, schedule: Q04DX003 (ip), vehicle: saline) was 8 of 8 and the survivor count (dose: 2.0 mg/kg/injection, schedule: Q08DX002 (ip), vehicle: saline) was 8 of 8. For the same compound, the survivor count (dose: 4.0 mg/kg/injection, schedule: Q01DX001 (ip), vehicle: saline) was 8 of 8, the survivor count (dose: 4.0 mg/kg/injection, schedule: Q01DX009 (ip), vehicle: saline) was 8 of 8 and the survivor count (dose: 4.0 mg/kg/injection, schedule: Q03HX008 (ip), vehicle: saline) was 6 of 8. The survivor count (dose: 4.0 mg/kg/injection, schedule: Q03HX016 (ip), vehicle: saline) was 8 of 8, the survivor count (dose: 4.0 mg/kg/injection, schedule: Q04DX003 (ip), vehicle: saline) was 8 of 8 and the survivor count (dose: 4.0 mg/kg/injection, schedule: Q08DX002 (ip), vehicle: saline) was 8 of 8. For the same compound, the survivor count (dose: 8.0 mg/kg/injection, schedule: Q01DX001 (ip), vehicle: saline) was 8 of 8, the survivor count (dose: 8.0 mg/kg/injection, schedule: Q01DX009 (ip), vehicle: saline) was 7 of 8 and the survivor count (dose: 8.0 mg/kg/injection, schedule: Q04DX003 (ip), vehicle: saline) was 8 of 8. For the same compound, the survivor count (dose: 8.0 mg/kg/injection, schedule: Q08DX002 (ip), vehicle: saline) was 8 of 8, the survivor count (dose: 16.0 mg/kg/injection, schedule: Q01DX001 (ip), vehicle: saline) was 8 of 8 and the survivor count (dose: 16.0 mg/kg/injection, schedule: Q04DX003 (ip), vehicle: saline) was 8 of 8. The survivor count (dose: 16.0 mg/kg/injection, schedule: Q08DX002 (ip), vehicle: saline) was 8 of 8, the survivor count (dose: 32.0 mg/kg/injection, schedule: Q01DX001 (ip), vehicle: saline) was 8 of 8 and the survivor count (dose: 32.0 mg/kg/injection, schedule: Q08DX002 (ip), vehicle: saline) was 8 of 8.

For `OC(CBr)C(O)C(O)C(O)CBr` (configuration not stated), the survivor count (dose: 8.0 mg/kg/injection, schedule: Q03HX024 (ip), vehicle: Klucel (hydroxypropylcellulose) (HPC)) was 8 of 8, the survivor count (dose: 16.0 mg/kg/injection, schedule: Q03HX008 (ip), vehicle: Klucel (hydroxypropylcellulose) (HPC)) was 8 of 8 and the survivor count (dose: 16.0 mg/kg/injection, schedule: Q03HX016 (ip), vehicle: Klucel (hydroxypropylcellulose) (HPC)) was 8 of 8. For the same compound, the survivor count (dose: 16.0 mg/kg/injection, schedule: Q03HX024 (ip), vehicle: Klucel (hydroxypropylcellulose) (HPC)) was 7 of 8, the survivor count (dose: 32.0 mg/kg/injection, schedule: Q01DX009 (ip), vehicle: Klucel (hydroxypropylcellulose) (HPC)) was 8 of 8 and the survivor count (dose: 32.0 mg/kg/injection, schedule: Q03HX008 (ip), vehicle: Klucel (hydroxypropylcellulose) (HPC)) was 8 of 8. The survivor count (dose: 32.0 mg/kg/injection, schedule: Q03HX016 (ip), vehicle: Klucel (hydroxypropylcellulose) (HPC)) was 8 of 8, the survivor count (dose: 32.0 mg/kg/injection, schedule: Q03HX024 (ip), vehicle: Klucel (hydroxypropylcellulose) (HPC)) was 8 of 8 and the survivor count (dose: 64.0 mg/kg/injection, schedule: Q01DX009 (ip), vehicle: Klucel (hydroxypropylcellulose) (HPC)) was 8 of 8. For the same compound, the survivor count (dose: 64.0 mg/kg/injection, schedule: Q03HX008 (ip), vehicle: Klucel (hydroxypropylcellulose) (HPC)) was 8 of 8, the survivor count (dose: 64.0 mg/kg/injection, schedule: Q03HX016 (ip), vehicle: Klucel (hydroxypropylcellulose) (HPC)) was 8 of 8 and the survivor count (dose: 64.0 mg/kg/injection, schedule: Q03HX024 (ip), vehicle: Klucel (hydroxypropylcellulose) (HPC)) was 8 of 8. The survivor count (dose: 64.0 mg/kg/injection, schedule: Q04DX003 (ip), vehicle: Klucel (hydroxypropylcellulose) (HPC)) was 8 of 8, the survivor count (dose: 128.0 mg/kg/injection, schedule: Q01DX001 (ip), vehicle: Klucel (hydroxypropylcellulose) (HPC)) was 8 of 8 and the survivor count (dose: 128.0 mg/kg/injection, schedule: Q01DX009 (ip), vehicle: Klucel (hydroxypropylcellulose) (HPC)) was 8 of 8. For the same compound, the survivor count (dose: 128.0 mg/kg/injection, schedule: Q03HX008 (ip), vehicle: Klucel (hydroxypropylcellulose) (HPC)) was 8 of 8, the survivor count (dose: 128.0 mg/kg/injection, schedule: Q03HX016 (ip), vehicle: Klucel (hydroxypropylcellulose) (HPC)) was 8 of 8 and the survivor count (dose: 128.0 mg/kg/injection, schedule: Q03HX024 (ip), vehicle: Klucel (hydroxypropylcellulose) (HPC)) was 8 of 8. The survivor count (dose: 128.0 mg/kg/injection, schedule: Q04DX003 (ip), vehicle: Klucel (hydroxypropylcellulose) (HPC)) was 8 of 8, the survivor count (dose: 128.0 mg/kg/injection, schedule: Q08DX002 (ip), vehicle: Klucel (hydroxypropylcellulose) (HPC)) was 8 of 8 and the survivor count (dose: 256.0 mg/kg/injection, schedule: Q01DX001 (ip), vehicle: Klucel (hydroxypropylcellulose) (HPC)) was 8 of 8. The survivor count (dose: 256.0 mg/kg/injection, schedule: Q01DX009 (ip), vehicle: Klucel (hydroxypropylcellulose) (HPC)) was 8 of 8, the survivor count (dose: 256.0 mg/kg/injection, schedule: Q03HX008 (ip), vehicle: Klucel (hydroxypropylcellulose) (HPC)) was 8 of 8 and the survivor count (dose: 256.0 mg/kg/injection, schedule: Q03HX016 (ip), vehicle: Klucel (hydroxypropylcellulose) (HPC)) was 7 of 8. The survivor count (dose: 256.0 mg/kg/injection, schedule: Q04DX003 (ip), vehicle: Klucel (hydroxypropylcellulose) (HPC)) was 8 of 8, the survivor count (dose: 256.0 mg/kg/injection, schedule: Q08DX002 (ip), vehicle: Klucel (hydroxypropylcellulose) (HPC)) was 8 of 8 and the survivor count (dose: 512.0 mg/kg/injection, schedule: Q01DX001 (ip), vehicle: Klucel (hydroxypropylcellulose) (HPC)) was 8 of 8. For the same compound, the survivor count (dose: 512.0 mg/kg/injection, schedule: Q01DX009 (ip), vehicle: Klucel (hydroxypropylcellulose) (HPC)) was 8 of 8, the survivor count (dose: 512.0 mg/kg/injection, schedule: Q04DX003 (ip), vehicle: Klucel (hydroxypropylcellulose) (HPC)) was 8 of 8 and the survivor count (dose: 512.0 mg/kg/injection, schedule: Q08DX002 (ip), vehicle: Klucel (hydroxypropylcellulose) (HPC)) was 8 of 8. For the same compound, the survivor count (dose: 1024.0 mg/kg/injection, schedule: Q01DX001 (ip), vehicle: Klucel (hydroxypropylcellulose) (HPC)) was 8 of 8, the survivor count (dose: 1024.0 mg/kg/injection, schedule: Q04DX003 (ip), vehicle: Klucel (hydroxypropylcellulose) (HPC)) was 8 of 8 and the survivor count (dose: 1024.0 mg/kg/injection, schedule: Q08DX002 (ip), vehicle: Klucel (hydroxypropylcellulose) (HPC)) was 8 of 8. For the same compound, the survivor count (dose: 2048.0 mg/kg/injection, schedule: Q01DX001 (ip), vehicle: Klucel (hydroxypropylcellulose) (HPC)) was 7 of 8 and the survivor count (dose: 2048.0 mg/kg/injection, schedule: Q08DX002 (ip), vehicle: Klucel (hydroxypropylcellulose) (HPC)) was 7 of 8.
